Data: the supplement of paper PMC10849652
The other results are listed elsewhere or left out.

Legend:
Experiment in all cases: log2 fold change, soluble protein after heating vs DMSO (PISA); higher = thermal stabilisation; K562 cells, 10 uM, 30 min; active = over 0.2 and 3.5 SD of the protein, either way, in both replicates (recomputed)
saracatinib = compound: CN1CCN(CCOc2cc(OC3CCOCC3)c3c(Nc4c(Cl)ccc5c4OCO5)ncnc3c2)CC1 [saracatinib]
Outline: (§1)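 For each measurement, 10 μM compound was applied for 30 min to K562 cells at 2×10^6 cells/mL. Aliquots were heated for 3 min across 48°C-58°C, pooled, and extracted in PBS with 0.5% NP-40 at 4°C; the supernatant after 21,000xg for 90 min was soluble protein. This was quantified by TMTpro 16plex LC-MS/MS with channel sums equalised, and thermal stability was reported relative to control samples from duplicates, on a log2 fold-change scale.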

sotrastaurin = compound: CN1CCN(c2nc(C3=C(c4c[nH]c5ccccc45)C(=O)NC3=O)c3ccccc3n2)CC1 [sotrastaurin]
Outline: as §1

alvocidib = compound: CN1CC[C@H](c2c(O)cc(O)c3c(=O)cc(-c4ccccc4Cl)oc23)[C@H](O)C1 [alvocidib]
Outline: as §1

Tubastatin A = compound: CN1CCc2c(c3ccccc3n2Cc2ccc(C(=O)NO)cc2)C1 [Tubastatin A]
Outline: as §1

[1] = compound: CNC(=O)C1=CC=CC=C1NC2=NC(=NC=C2Cl)NC3=C(C=C(C=C3)N4CCOCC4)OC
Outline: as §1

defactinib = compound: CNC(=O)c1ccc(Nc2ncc(C(F)(F)F)c(NCc3nccnc3N(C)S(C)(=O)=O)n2)cc1 [defactinib]
Outline: as §1

rucaparib = compound: CNCc1ccc(-c2[nH]c3cc(F)cc4c3c2CCNC4=O)cc1 [rucaparib]
Outline: as §1

[2] = compound: CNc1nc(-c2ccc3c(N)n[nH]c3c2)cc(N2C[C@@H](C(=O)NC3CCCCC3)CC[C@H]2C)n1
Outline: as §1

encorafenib = compound: COC(=O)N[C@@H](C)CNc1nccc(-c2cn(C(C)C)nc2-c2cc(Cl)cc(NS(C)(=O)=O)c2F)n1 [encorafenib]
Outline: as §1

[3] = compound: COC(=O)[C@H](CCSC)NC(=O)C1=C(C=C(C=C1)NC[C@H](CS)N)C2=CC=CC=C2
Outline: as §1

Measured: log2 fold change

PQBP1 (UniProt O60828)
inactive: saracatinib 0.036 | sotrastaurin 0.039 | alvocidib -0.038 | Tubastatin A 0.011 | [1] -0.022 | defactinib 0.005 | rucaparib -0.013 | [2] -0.036 | encorafenib -0.029 | [3] -0.013

PRDX6 (UniProt P30041)
inactive: saracatinib -0.052 | sotrastaurin 0.015 | alvocidib -0.028 | Tubastatin A -0.029 | [1] 0.021 | defactinib -0.022 | rucaparib -0.067 | [2] 0.036 | encorafenib -0.028 | [3] -0.005

PRIMPOL (UniProt Q96LW4)
inactive: saracatinib -0.218 | sotrastaurin 0.059 | alvocidib -0.106 | Tubastatin A -0.096 | [2] -0.216

PRPSAP1 isoform 2 (UniProt Q14558)
inactive: saracatinib 0.039 | sotrastaurin 0.027 | alvocidib 0.008 | Tubastatin A -0.022 | [1] -0.011 | defactinib 0.044 | rucaparib 0.019 | [2] 0.006 | encorafenib 0.012 | [3] 0.041

PRKRA (UniProt O75569)
inactive: saracatinib -0.149 | sotrastaurin -0.118 | alvocidib 0.245 | Tubastatin A 0.125 | defactinib 0.073 | rucaparib 0.473 | [2] 0.041 | encorafenib 0.164 | [3] -0.061

PRPS1 (UniProt P60891)
inactive: saracatinib 0.009 | sotrastaurin 0.05 | alvocidib 0.044 | Tubastatin A 0.008 | [1] -0.045 | defactinib 0.01 | rucaparib -0.009 | [2] 0.003 | encorafenib -0.025 | [3] -0.033

PRDX2 (UniProt P32119)
inactive: saracatinib -0.05 | sotrastaurin 0.053 | alvocidib -0.021 | Tubastatin A -0.016 | [1] -0.026 | defactinib 0.01 | rucaparib 0.096 | [2] 0.004 | encorafenib -0.022 | [3] 0.029

PROS1 (UniProt P07225)
inactive: saracatinib 0.067 | sotrastaurin 0.084 | alvocidib 0.046 | Tubastatin A -0.053 | [1] -0.018 | defactinib -0.016 | rucaparib -0.034 | [2] -0.027 | encorafenib 0.005 | [3] 0.078

PRDX1 (UniProt Q06830)
inactive: saracatinib 0.003 | sotrastaurin 0.02 | alvocidib -0.032 | Tubastatin A -0.012 | [1] -0.015 | defactinib -0.013 | rucaparib 0.202 | [2] -0.016 | encorafenib -0.01 | [3] 0.022

PPM1F (UniProt P49593)
inactive: saracatinib -0.04 | sotrastaurin -0.017 | alvocidib -0.064 | Tubastatin A 0.013 | [1] 0.023 | defactinib -0.016 | rucaparib -0.021 | [2] 0.006 | encorafenib -0.013 | [3] -0.048

PRPF19 (UniProt Q9UMS4)
inactive: saracatinib 0.046 | sotrastaurin 0.023 | alvocidib 0.123 | Tubastatin A -0.108 | [1] -0.023 | defactinib 0.062 | rucaparib -0.006 | [2] -0.045 | encorafenib -0.029 | [3] 0.012

PRCC (UniProt Q92733)
inactive: saracatinib -0.001 | sotrastaurin 0.035 | alvocidib 0.017 | Tubastatin A -0.005 | [1] -0.024 | defactinib -0.057 | rucaparib -0.025 | [2] -0.102 | encorafenib -0.035 | [3] 0.02

PRPH isoform 2 (UniProt P41219)
inactive: saracatinib -0.161 | sotrastaurin -0.131 | alvocidib 0.113 | Tubastatin A -0.027 | [1] -0.033 | defactinib 0.199 | rucaparib 0 | [2] -0.106 | encorafenib 0.069 | [3] 0.083

PRDX4 (UniProt Q13162)
inactive: saracatinib -0.017 | sotrastaurin 0.006 | alvocidib -0.031 | Tubastatin A -0.032 | [1] -0.001 | defactinib -0.016 | rucaparib 0.048 | [2] -0.035 | encorafenib 0.011 | [3] 0.022

PRPF4 (UniProt O43172)
inactive: saracatinib -0.011 | sotrastaurin -0.018 | alvocidib -0.14 | Tubastatin A -0.007 | [1] -0.016 | defactinib -0.114 | rucaparib 0.081 | [2] -0.026 | encorafenib 0.01 | [3] 0.047

PPP2R1B isoform 2 (UniProt P30154)
inactive: saracatinib 0.002 | sotrastaurin -0.093 | alvocidib -0.025 | Tubastatin A -0.004 | [1] 0.001 | defactinib -0.011 | rucaparib 0.025 | [2] 0.034 | encorafenib 0.041 | [3] -0.021

PRADC1 (UniProt Q9BSG0)
inactive: saracatinib -0.221 | sotrastaurin 0.028 | alvocidib -0.131 | Tubastatin A -0.091 | defactinib 0.203 | rucaparib 0.044 | [2] 0.22 | encorafenib -0.097 | [3] 0.034

PPP1R21 (UniProt Q6ZMI0)
inactive: saracatinib -0.155 | sotrastaurin -0.059 | alvocidib -0.1 | [1] -0.044 | defactinib -0.185 | [2] -0.073 | [3] 0.151

PPP2R3C (UniProt Q969Q6)
inactive: Tubastatin A -0.05 | rucaparib -0.049 | encorafenib -0.142

PRF1 (UniProt P14222)
inactive: sotrastaurin 0.096 | [1] -0.162

PRKD2 isoform 3 (UniProt Q9BZL6)
inactive: saracatinib -0.031 | sotrastaurin -0.273 | Tubastatin A 0 | [1] -0.242 | defactinib -0.004 | [2] -0.075 | [3] -0.024

PRR12 (UniProt Q9ULL5)
inactive: sotrastaurin -0.051 | [1] -0.777

PRNP (UniProt P04156)
inactive: sotrastaurin 0.022 | [1] 0.073

PRKACA (UniProt P17612)
inactive: saracatinib 0.002 | sotrastaurin -0.117 | Tubastatin A 0.054 | [1] -0.104 | defactinib -0.015 | rucaparib 0.061 | [2] 0.077 | encorafenib 0.01 | [3] 0.072

PRKD2 (UniProt M0R346)
inactive: sotrastaurin -0.247

PROSER1 (UniProt Q86XN7)
inactive: sotrastaurin -0.158 | Tubastatin A 0.231

PPP1R15A (UniProt O75807)
inactive: sotrastaurin 0.093 | [1] 0.044

PRG2 (UniProt P13727)
inactive: saracatinib -0.066 | alvocidib 0.1 | Tubastatin A -0.023 | [1] -0.038 | defactinib -0.166 | rucaparib 0.036 | [2] -0.036 | encorafenib -0.156 | [3] -0.054

PPP1R13L (UniProt Q8WUF5)
inactive: Tubastatin A -0.022 | defactinib -0.126 | rucaparib -0.107 | encorafenib 0.039 | [3] -0.135

PPP2R5C isoform 2 (UniProt Q13362)
inactive: [1] -0.017 | rucaparib -0.063 | encorafenib 0.003

PRDM2 (UniProt Q13029)
inactive: saracatinib 0.004 | alvocidib 0.236 | Tubastatin A 0.019 | defactinib 0.392 | rucaparib -0.005 | [2] 0.074 | encorafenib 0.223 | [3] 0.408

PRMT3 (UniProt O60678)
inactive: saracatinib 0.021 | sotrastaurin -0.046 | Tubastatin A -0.017 | [1] 0.058 | defactinib -0.005 | rucaparib 0.035 | [2] 0.011 | encorafenib 0.061 | [3] -0.064

PPP2R3B (UniProt Q9Y5P8)
inactive: Tubastatin A 0.029 | defactinib 0.173 | [3] -0.195

PRKCSH isoform 2 (UniProt P14314)
inactive: saracatinib -0.069 | alvocidib 0.001 | Tubastatin A 0.013 | [1] -0.007 | defactinib -0.089 | rucaparib 0.023 | [2] -0.008 | encorafenib -0.08 | [3] 0.038

Pulled one by one from above, 2 records:
PRPF19 (UniProt Q9UMS4)
inactive: saracatinib 0.046 | sotrastaurin 0.023 | alvocidib 0.123 | Tubastatin A -0.108 | [1] -0.023 | defactinib 0.062 | rucaparib -0.006 | [2] -0.045 | encorafenib -0.029 | [3] 0.012

PRDX6 (UniProt P30041)
inactive: saracatinib -0.052 | sotrastaurin 0.015 | alvocidib -0.028 | Tubastatin A -0.029 | [1] 0.021 | defactinib -0.022 | rucaparib -0.067 | [2] 0.036 | encorafenib -0.028 | [3] -0.005

Later entries:

PRPF38A (UniProt Q8NAV1)
inactive: saracatinib 0.019 | sotrastaurin 0.016 | Tubastatin A -0.024 | [1] 0.052 | defactinib -0.036 | rucaparib 0.121 | [2] -0.035 | encorafenib -0.034 | [3] -0.008

PPP2R1B (UniProt H0YDG7)
inactive: sotrastaurin 0.332 | alvocidib 0.117 | Tubastatin A 0.086 | rucaparib 0.158 | encorafenib -0.224

PRPF39 (UniProt Q86UA1)
inactive: saracatinib -0.113 | alvocidib -0.382 | Tubastatin A 0.237 | [2] -0.038

PPP2CB (UniProt E5RHC1)
inactive: [1] -0.176

PRR16 (UniProt Q569H4)
inactive: [1] 0.062

PRMT6 (UniProt Q96LA8)
inactive: saracatinib 0.034 | alvocidib -0.038 | Tubastatin A 0.001 | [1] -0.001 | defactinib 0.05 | rucaparib -0.012 | [2] 0.008 | encorafenib 0.041 | [3] -0.152

PPP2R5B (UniProt Q15173)
inactive: saracatinib -0.161 | [1] -0.064 | defactinib 0.051 | rucaparib -0.015 | [2] -0.043 | encorafenib 0.07 | [3] -0.135

PRC1 (UniProt O43663)
inactive: sotrastaurin 0.017 | alvocidib -0.06 | Tubastatin A 0.104

PRELID1 (UniProt Q9Y255)
inactive: sotrastaurin 0.051 | Tubastatin A 0.234 | [1] -0.049 | defactinib 0.07 | [3] -0.089

PRELID3B (UniProt Q9Y3B1)
inactive: Tubastatin A 0.074 | [1] 0.325

PRR14L (UniProt Q5THK1)
inactive: Tubastatin A 0.053 | defactinib 0.286 | [3] 0.125

PPP1R3D (UniProt O95685)
inactive: alvocidib 0.114 | Tubastatin A -0.143 | [1] -0.064

PRPF6 (UniProt O94906)
inactive: saracatinib 0.049 | sotrastaurin 0.009 | Tubastatin A 0.221 | [1] 0.137 | [2] -0.068

PPP1R9A isoform 3 (UniProt Q9ULJ8)
inactive: saracatinib -0.065 | sotrastaurin 0.092 | defactinib 0.079 | rucaparib 0.295 | [2] -0.1 | encorafenib 0.121 | [3] -0.005

PPT1 (UniProt P50897)
inactive: saracatinib -0.007 | sotrastaurin 0.029 | Tubastatin A -0.038 | [1] 0.024 | defactinib 0.024 | rucaparib 0.047 | [2] -0.019 | encorafenib -0.023 | [3] -0.002

PPP1R12B isoform 6 (UniProt O60237)
inactive: [1] 0

PPTC7 (UniProt Q8NI37)
inactive: defactinib -0.059 | [3] 0.018

PRMT2 (UniProt P55345)
inactive: sotrastaurin -0.034

PRR3 (UniProt P79522)
inactive: sotrastaurin -0.087 | Tubastatin A 0.153

PRKD3 (UniProt O94806)
inactive: saracatinib 0.023 | sotrastaurin -0.31 | [1] -0.335 | defactinib -0.068 | [2] 0.002 | [3] -0.058

PROSER3 (UniProt Q2NL68)
inactive: saracatinib 0.217 | alvocidib -0.318 | Tubastatin A 0.002 | [1] 0.024 | [2] -0.282

Quoted from above (3 entries):
PRMT2 (UniProt P55345)
inactive: sotrastaurin -0.034

PRR3 (UniProt P79522)
inactive: sotrastaurin -0.087 | Tubastatin A 0.153

PRKD3 (UniProt O94806)
inactive: saracatinib 0.023 | sotrastaurin -0.31 | [1] -0.335 | defactinib -0.068 | [2] 0.002 | [3] -0.058

Next part.

PRKX (UniProt P51817)
inactive: [1] -0.139

PPT2 isoform 3 (UniProt Q9UMR5)
inactive: saracatinib 0.042 | sotrastaurin 0.022 | Tubastatin A 0.018 | [1] 0 | defactinib -0.023 | rucaparib 0.025 | [2] 0.038 | encorafenib -0.003 | [3] 0.029

PPP1R12C (UniProt Q9BZL4)
inactive: saracatinib -0.115 | sotrastaurin -0.157 | Tubastatin A 0.014 | [1] 0.113 | defactinib -0.205 | rucaparib 0.184 | [2] -0.164 | encorafenib -0.013 | [3] 0.035
